Results are given in words; binding and its absence hold for the method and conditions named. In cells and extracts the contact can be indirect.
Target: YFP-hScrib (human) (UniProt Q14160)
Assay: FRET or BRET

Protein sequences, listed by entry. Tags and fused reporters are not part of them.
UniProt Q14160: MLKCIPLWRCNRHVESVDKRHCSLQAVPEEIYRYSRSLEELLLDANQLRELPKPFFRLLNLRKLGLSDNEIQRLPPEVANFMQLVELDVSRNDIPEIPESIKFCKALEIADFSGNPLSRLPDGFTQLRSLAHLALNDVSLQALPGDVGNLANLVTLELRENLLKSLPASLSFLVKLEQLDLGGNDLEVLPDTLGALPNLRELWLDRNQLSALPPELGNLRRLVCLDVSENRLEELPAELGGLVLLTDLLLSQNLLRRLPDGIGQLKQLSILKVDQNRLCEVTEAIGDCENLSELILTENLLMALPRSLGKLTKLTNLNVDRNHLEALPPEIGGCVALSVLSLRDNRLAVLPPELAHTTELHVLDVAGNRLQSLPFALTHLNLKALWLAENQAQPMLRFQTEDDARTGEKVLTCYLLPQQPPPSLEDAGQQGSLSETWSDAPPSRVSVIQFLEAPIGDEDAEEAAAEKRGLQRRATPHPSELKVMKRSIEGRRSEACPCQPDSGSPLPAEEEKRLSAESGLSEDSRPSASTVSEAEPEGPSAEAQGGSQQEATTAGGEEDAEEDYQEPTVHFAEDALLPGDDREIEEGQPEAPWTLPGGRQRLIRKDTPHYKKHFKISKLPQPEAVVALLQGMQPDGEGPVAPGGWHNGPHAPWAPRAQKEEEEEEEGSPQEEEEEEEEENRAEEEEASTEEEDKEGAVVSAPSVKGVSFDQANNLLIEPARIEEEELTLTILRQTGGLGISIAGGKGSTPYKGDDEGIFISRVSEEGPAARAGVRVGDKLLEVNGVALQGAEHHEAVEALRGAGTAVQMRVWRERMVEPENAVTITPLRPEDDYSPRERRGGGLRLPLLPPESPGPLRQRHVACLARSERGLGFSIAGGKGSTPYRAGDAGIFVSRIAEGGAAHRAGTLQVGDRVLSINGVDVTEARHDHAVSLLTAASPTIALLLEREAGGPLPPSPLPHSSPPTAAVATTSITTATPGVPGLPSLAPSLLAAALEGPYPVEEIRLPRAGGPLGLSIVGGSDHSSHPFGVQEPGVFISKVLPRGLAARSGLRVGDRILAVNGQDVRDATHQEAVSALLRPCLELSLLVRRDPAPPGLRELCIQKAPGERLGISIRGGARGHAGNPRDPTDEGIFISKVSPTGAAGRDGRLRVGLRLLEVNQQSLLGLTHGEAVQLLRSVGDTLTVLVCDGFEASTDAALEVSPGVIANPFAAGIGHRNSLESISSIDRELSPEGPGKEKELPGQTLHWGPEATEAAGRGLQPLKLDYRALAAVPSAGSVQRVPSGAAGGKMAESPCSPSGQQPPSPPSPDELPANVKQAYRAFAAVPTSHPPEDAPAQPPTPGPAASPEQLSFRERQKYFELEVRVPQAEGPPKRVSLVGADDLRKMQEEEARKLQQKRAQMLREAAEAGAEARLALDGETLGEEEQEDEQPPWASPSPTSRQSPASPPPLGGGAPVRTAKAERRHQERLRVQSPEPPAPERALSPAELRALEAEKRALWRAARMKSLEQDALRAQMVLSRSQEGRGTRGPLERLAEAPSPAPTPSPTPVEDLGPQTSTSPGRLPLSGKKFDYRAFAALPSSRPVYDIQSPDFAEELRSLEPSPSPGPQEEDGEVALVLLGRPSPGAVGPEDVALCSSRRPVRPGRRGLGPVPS
UniProt P16790: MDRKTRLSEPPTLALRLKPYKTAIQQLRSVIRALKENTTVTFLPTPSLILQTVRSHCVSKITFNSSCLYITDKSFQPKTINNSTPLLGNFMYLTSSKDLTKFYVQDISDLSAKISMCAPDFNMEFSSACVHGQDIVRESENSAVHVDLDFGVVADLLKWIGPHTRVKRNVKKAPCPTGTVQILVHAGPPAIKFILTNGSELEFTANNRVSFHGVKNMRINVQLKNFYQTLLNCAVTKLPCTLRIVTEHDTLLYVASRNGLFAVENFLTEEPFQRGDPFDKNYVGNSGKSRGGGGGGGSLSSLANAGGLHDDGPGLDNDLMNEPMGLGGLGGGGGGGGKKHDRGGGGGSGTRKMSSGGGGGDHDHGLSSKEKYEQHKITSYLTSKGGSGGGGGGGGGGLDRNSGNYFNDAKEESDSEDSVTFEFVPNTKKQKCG

RLuc-UL44 (UL44 of human cytomegalovirus) (from UniProt P16790 1-433)
binding: no binding
